In publication doi:10.1101/2024.01.16.575949 one finds binding data, which are given here for twelve molecules.

Protein sequences, listed by entry. Tags and fused reporters are not part of them.
UniProt Q07955: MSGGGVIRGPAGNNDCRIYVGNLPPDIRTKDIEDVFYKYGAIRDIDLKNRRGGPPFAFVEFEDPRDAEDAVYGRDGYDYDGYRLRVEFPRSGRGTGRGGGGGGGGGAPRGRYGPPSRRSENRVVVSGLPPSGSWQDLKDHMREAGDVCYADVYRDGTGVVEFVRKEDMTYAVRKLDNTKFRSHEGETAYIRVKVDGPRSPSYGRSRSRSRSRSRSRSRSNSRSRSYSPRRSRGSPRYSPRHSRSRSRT

No constants are given. Whether binding was seen depends on the method and setting. Binding seen in cells or lysates may run through a third protein. A yes stands for co-enrichment or nearness to the bait. Other partners may have been found.

The labels stand for the following.
T1: Halo-FAM60A (full length) (UniProt Q9NP50)
T1 sequence: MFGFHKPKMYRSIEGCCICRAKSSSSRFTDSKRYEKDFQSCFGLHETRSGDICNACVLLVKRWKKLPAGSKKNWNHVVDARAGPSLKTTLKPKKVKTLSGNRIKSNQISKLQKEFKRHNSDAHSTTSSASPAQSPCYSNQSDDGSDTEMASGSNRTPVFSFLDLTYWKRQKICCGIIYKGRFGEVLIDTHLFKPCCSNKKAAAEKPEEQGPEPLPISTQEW

T2: Halo-SIN3A (UniProt Q96ST3)
T2 sequence: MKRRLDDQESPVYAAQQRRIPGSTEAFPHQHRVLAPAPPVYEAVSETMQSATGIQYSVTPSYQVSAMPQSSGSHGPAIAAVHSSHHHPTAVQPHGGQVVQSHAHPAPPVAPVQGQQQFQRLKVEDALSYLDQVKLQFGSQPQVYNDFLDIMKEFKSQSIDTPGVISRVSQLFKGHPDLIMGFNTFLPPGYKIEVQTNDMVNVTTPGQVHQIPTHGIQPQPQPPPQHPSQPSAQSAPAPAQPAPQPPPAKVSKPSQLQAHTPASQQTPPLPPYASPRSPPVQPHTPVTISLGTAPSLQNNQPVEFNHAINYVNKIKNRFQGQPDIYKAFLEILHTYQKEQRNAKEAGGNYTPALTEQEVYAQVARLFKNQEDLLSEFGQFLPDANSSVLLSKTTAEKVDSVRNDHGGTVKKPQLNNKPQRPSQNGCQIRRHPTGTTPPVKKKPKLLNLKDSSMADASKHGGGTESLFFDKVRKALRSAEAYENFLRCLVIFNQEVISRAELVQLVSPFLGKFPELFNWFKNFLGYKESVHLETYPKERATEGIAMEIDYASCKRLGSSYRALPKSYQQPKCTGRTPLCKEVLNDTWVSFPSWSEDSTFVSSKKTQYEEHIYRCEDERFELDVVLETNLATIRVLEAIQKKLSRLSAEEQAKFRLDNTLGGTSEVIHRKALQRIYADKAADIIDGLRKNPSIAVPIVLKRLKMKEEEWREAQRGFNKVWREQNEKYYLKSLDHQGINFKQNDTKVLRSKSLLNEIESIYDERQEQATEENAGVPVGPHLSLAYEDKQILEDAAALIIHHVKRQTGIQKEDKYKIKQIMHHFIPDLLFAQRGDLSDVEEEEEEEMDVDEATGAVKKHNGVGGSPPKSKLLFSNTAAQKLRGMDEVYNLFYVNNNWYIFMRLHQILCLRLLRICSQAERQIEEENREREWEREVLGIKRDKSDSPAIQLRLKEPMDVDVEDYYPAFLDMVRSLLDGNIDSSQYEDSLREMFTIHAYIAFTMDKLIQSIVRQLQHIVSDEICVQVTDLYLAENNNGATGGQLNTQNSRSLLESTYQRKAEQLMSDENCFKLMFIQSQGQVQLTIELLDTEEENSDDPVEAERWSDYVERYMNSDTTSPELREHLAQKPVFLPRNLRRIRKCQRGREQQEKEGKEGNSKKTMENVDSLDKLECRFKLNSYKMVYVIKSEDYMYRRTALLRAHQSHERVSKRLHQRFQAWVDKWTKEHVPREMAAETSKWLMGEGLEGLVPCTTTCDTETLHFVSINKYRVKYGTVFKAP

B1: SRSF4 (endogenous) (protein, UniProt Q08170 1-494)
chain: MPRVYIGRLSYQARERDVERFFKGYGKILEVDLKNGYGFVEFDDLRDADDAVYELNGKDLCGERVIVEHARGPRRDGSYGSGRSGYGYRRSGRDKYGPPTRTEYRLIVENLSSRCSWQDLKDYMRQAGEVTYADAHKGRKNEGVIEFVSYSDMKRALEKLDGTEVNGRKIRLVEDKPGSRRRRSYSRSRSHSRSRSRSRHSRKSRSRSGSSKSSHSKSRSRSRSGSRSRSKSRSRSQSRSRSKKEKSRSPSKEKSRSRSHSAGKSRSKSKDQAEEKIQNNDNVGKPKSRSPSRHKSKSKSRSRSQERRVEEEKRGSVSRGRSQEKSLRQSRSRSRSKGGSRSRSRSRSKSKDKRKGRKRSREESRSRSRSRSKSERSRKRGSKRDSKAGSSKKKKKEDTDRSQSRSPSRSVSKEREHAKSESSQREGRGESENAGTNQETRSRSRSNSKSKPNLPSESRSRSKSASKTRSRSKSRSRSASRSPSRSRSRSHSRS
B2: U2AF1 (endogenous) (protein, UniProt Q01081 1-240)
chain: MAEYLASIFGTEKDKVNCSFYFKIGACRHGDRCSRLHNKPTFSQTIALLNIYRNPQNSSQSADGLRCAVSDVEMQEHYDEFFEEVFTEMEEKYGEVEEMNVCDNLGDHLVGNVYVKFRREEDAEKAVIDLNNRWFNGQPIHAELSPVTDFREACCRQYEMGECTRGGFCNFMHLKPISRELRRELYGRRRKKHRSRSRSRERRSRSRDRGRGGGGGGGGGGGGRERDRRRSRDRERSGRF
B3: SRSF2 (endogenous) (protein, UniProt Q01130 1-221)
chain: MSYGRPPPDVEGMTSLKVDNLTYRTSPDTLRRVFEKYGRVGDVYIPRDRYTKESRGFAFVRFHDKRDAEDAMDAMDGAVLDGRELRVQMARYGRPPDSHHSRRGPPPRRYGGGGYGRRSRSPRRRRRSRSRSRSRSRSRSRSRYSRSKSRSRTRSRSRSTSKSRSARRSKSKSSSVSRSRSRSRSRSRSRSPPPVSKRESKSRSRSKSPPKSPEEEGAVSS
B4: SRSF5 (endogenous) (protein, UniProt Q13243 1-272)
chain: MSGCRVFIGRLNPAAREKDVERFFKGYGRIRDIDLKRGFGFVEFEDPRDADDAVYELDGKELCSERVTIEHARARSRGGRGRGRYSDRFSSRRPRNDRRNAPPVRTENRLIVENLSSRVSWQDLKDFMRQAGEVTFADAHRPKLNEGVVEFASYGDLKNAIEKLSGKEINGRKIKLIEGSKRHSRSRSRSRSRTRSSSRSRSRSRSRSRKSYSRSRSRSRSRSRSKSRSVSRSPVPEKSQKRGSSSRSKSPASVDRQRSRSRSRSRSVDSGN
B5: SRSF3 (endogenous) (protein, UniProt P84103 1-164)
chain: MHRDSCPLDCKVYVGNLGNNGNKTELERAFGYYGPLRSVWVARNPPGFAFVEFEDPRDAADAVRELDGRTLCGCRVRVELSNGEKRSRNRGPPPSWGRRPRDDYRRRSPPPRRRSPRRRSFSRSRSRSLSRDRRRERSLSRERNHKPSRSFSRSRSRSRSNERK
B6: SRSF7 (endogenous) (protein, UniProt Q16629 1-238)
chain: MSRYGRYGGETKVYVGNLGTGAGKGELERAFSYYGPLRTVWIARNPPGFAFVEFEDPRDAEDAVRGLDGKVICGSRVRVELSTGMPRRSRFDRPPARRPFDPNDRCYECGEKGHYAYDCHRYSRRRRSRSRSRSHSRSRGRRYSRSRSRSRGRRSRSASPRRSRSISLRRSRSASLRRSRSGSIKGSRYFQSPSRSRSRSRSISRPRSSRSKSRSPSPKRSRSPSGSPRRSASPERMD
B7: SRSF6 (endogenous) (protein, UniProt Q13247 1-344)
chain: MPRVYIGRLSYNVREKDIQRFFSGYGRLLEVDLKNGYGFVEFEDSRDADDAVYELNGKELCGERVIVEHARGPRRDRDGYSYGSRSGGGGYSSRRTSGRDKYGPPVRTEYRLIVENLSSRCSWQDLKDFMRQAGEVTYADAHKERTNEGVIEFRSYSDMKRALDKLDGTEINGRNIRLIEDKPRTSHRRSYSGSRSRSRSRRRSRSRSRRSSRSRSRSISKSRSRSRSRSKGRSRSRSKGRKSRSKSKSKPKSDRGSHSHSRSRSKDEYEKSRSRSRSRSPKENGKGDIKSKSRSRSQSRSNSPLPVPPSKARSVSPPPKRATSRSRSRSRSKSRSRSRSSSRD
B8: ING2 (endogenous) (protein, UniProt Q9H160 1-280)
chain: MLGQQQQQLYSSAALLTGERSRLLTCYVQDYLECVESLPHDMQRNVSVLRELDNKYQETLKEIDDVYEKYKKEDDLNQKKRLQQLLQRALINSQELGDEKIQIVTQMLELVENRARQMELHSQCFQDPAESERASDKAKMDSSQPERSSRRPRRQRTSESRDLCHMANGIEDCDDQPPKEKKSKSAKKKKRSKAKQEREASPVEFAIDPNEPTYCLCNQVSYGEMIGCDNEQCPIEWFHFSCVSLTYKPKGKWYCPKCRGDNEKTMDKSTEKTKKDRRSR
B9: ARID4B (endogenous) (protein, UniProt Q4LE39 1-1312)
chain: MKALDEPPYLTVGTDVSAKYRGAFCEAKIKTAKRLVKVKVTFRHDSSTVEVQDDHIKGPLKVGAIVEVKNLDGAYQEAVINKLTDASWYTVVFDDGDEKTLRRSSLCLKGERHFAESETLDQLPLTNPEHFGTPVIGKKTNRGRRSNHIPEEESSSSSSDEDEDDRKQIDELLGKVVCVDYISLDKKKALWFPALVVCPDCSDEIAVKKDNILVRSFKDGKFTSVPRKDVHEITSDTAPKPDAVLKQAFEQALEFHKSRTIPANWKTELKEDSSSSEAEEEEEEEDDEKEKEDNSSEEEEEIEPFPEERENFLQQLYKFMEDRGTPINKRPVLGYRNLNLFKLFRLVHKLGGFDNIESGAVWKQVYQDLGIPVLNSAAGYNVKCAYKKYLYGFEEYCRSANIEFQMALPEKVVNKQCKECENVKEIKVKEENETEIKEIKMEEERNIIPREEKPIEDEIERKENIKPSLGSKKNLLESIPTHSDQEKEVNIKKPEDNENLDDKDDDTTRVDESLNIKVEAEEEKAKSGDETNKEEDEDDEEAEEEEEEEEEEEDEDDDDNNEEEEFECYPPGMKVQVRYGRGKNQKMYEASIKDSDVEGGEVLYLVHYCGWNVRYDEWIKADKIVRPADKNVPKIKHRKKIKNKLDKEKDKDEKYSPKNCKLRRLSKPPFQTNPSPEMVSKLDLTDAKNSDTAHIKSIEITSILNGLQASESSAEDSEQEDERGAQDMDNNGKEESKIDHLTNNRNDLISKEEQNSSSLLEENKVHADLVISKPVSKSPERLRKDIEVLSEDTDYEEDEVTKKRKDVKKDTTDKSSKPQIKRGKRRYCNTEECLKTGSPGKKEEKAKNKESLCMENSSNSSSDEDEEETKAKMTPTKKYNGLEEKRKSLRTTGFYSGFSEVAEKRIKLLNNSDERLQNSRAKDRKDVWSSIQGQWPKKTLKELFSDSDTEAAASPPHPAPEEGVAEESLQTVAEEESCSPSVELEKPPPVNVDSKPIEEKTVEVNDRKAEFPSSGSNSVLNTPPTTPESPSSVTVTEGSRQQSSVTVSEPLAPNQEEVRSIKSETDSTIEVDSVAGELQDLQSEGNSSPAGFDASVSSSSSNQPEPEHPEKACTGQKRVKDAQGGGSSSKKQKRSHKATVVNNKKKGKGTNSSDSEELSAGESITKSQPVKSVSTGMKSHSTKSPARTQSPGKCGKNGDKDPDLKEPSNRLPKVYKWSFQMSDLENMTSAERITILQEKLQEIRKHYLSLKSEVASIDRRRKRLKKKERESAATSSSSSSPSSSSITAAVMLTLAEPSMSSASQNGMSVECR
B10: SAP30L (endogenous) (protein, UniProt Q9HAJ7 1-183)
chain: MNGFSTEEDSREGPPAAPAAAAPGYGQSCCLIEDGERCVRPAGNASFSKRVQKSISQKKLKLDIDKSVRHLYICDFHKNFIQSVRNKRKRKTSDDGGDSPEHDTDIPEVDLFQLQVNTLRRYKRHYKLQTRPGFNKAQLAETVSRHFRNIPVNEKETLAYFIYMVKSNKSRLDQKSEGGKQLE
B11: SAP30 (endogenous) (protein, UniProt O75446 1-220)
chain: MNGFTPDEMSRGGDAAAAVAAVVAAAAAAASAGNGTGAGTGAEVPGAGAVSAAGPPGAAGPGPGQLCCLREDGERCGRAAGNASFSKRIQKSISQKKVKIELDKSARHLYICDYHKNLIQSVRNRRKRKGSDDDGGDSPVQDIDTPEVDLYQLQVNTLRRYKRHFKLPTRPGLNKAQLVEIVGCHFRSIPVNEKDTLTYFIYSVKNDKNKSDLKVDSGVH

One test addresses T1, Halo-FAM60A (full length). The test can be described thus: affinity purification with mass spectrometry.
Regarding “SRSF1 (endogenous) (from UniProt Q07955 1-248)”, the binding result is reported as “binds”.
Same read-out and setting: with B1 the entry was “binds”.
On the same count and under the same terms, with B2 the entry was “binds”; with B3, “binds”; with B4, “binds”.
On to B5, for which the binding entry is given as “binds”.
With B6, the binding entry is listed as “binds”.
Still for that read-out and setting: for B7 the value was “binds”.

A further test addresses T2, Halo-SIN3A. The test can be described thus: affinity purification with mass spectrometry.
As to B8, the binding result is recorded as “binds”.
On to B9, for which the binding result was “binds”.
As to B10, the binding result was “binds”.
The same measure, in the same setting: for B11 the value was “binds”.
